PubChem BioAssay AID504793 | Drosophila RNAi Screening Center | 2011
Test: 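Knock-downs allowing continued mitosis even though DNA is damaged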 (primary screen). Cells: Drosophila S2R+ cells. Reagents: long dsRNA against Drosophila genes, about 0.25 µg dsRNA per well. Duration: 4 days of dsRNA, then 4 hours of drug before read-out. Challenge: doxorubicin 0.5 µM for 4 hours to cause double-strand breaks, in cells also given a low, harmless dose of dsRNA against nbs to sensitise the assay. Measurement: 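Mitotic index as the number of phospho-histone H3-positive cells in each well following doxorubicin, given as raw counts without normalisation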. Scale: mitotic cells: higher = more cells in mitosis, weaker G2 arrest. Active means: 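Genes are called active only when high mitotic counts were reproduced with independent dsRNAs and mitosis was checked for delay without damage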. Meaning of the calls: active = confirmed in follow-up tests; inactive = not confirmed.
The screen tested about 23,000 reagents; shown is a random part of those that have a named target and a result. Over the whole deposit, 62 (0.27%) are marked active. 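Calls come from follow-up tests whose scores are not deposited, so confirmed genes may have low counts here; counts are not normalised per plate.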 Raw values are not corrected between plates. A plus sign joins genes that one reagent is predicted to hit. Reagent sequences are not shown.

no.	target gene	DRSC id	mitotic cells, replicate 1	outcome
1	CG6230	DRSC01989	5	inactive
2	Cpr47Ec	DRSC07332	10	inactive
3	Syx5	DRSC03432	11	inactive
4	CG16888	DRSC02541	3	inactive
5	CG12325	DRSC06130	5	inactive
6	HP1b	DRSC18418	9	inactive
7	HP1b	DRSC29826	14	inactive
8	ETHR	DRSC15915	11	inactive
9	ETHR	DRSC29606	7	inactive
10	PCB	DRSC05939	2	inactive
11	Drsl2	DRSC08160	4	inactive
12	Drsl2	DRSC25541	9	inactive
13	dnt	DRSC03522	5	inactive
14	dnt	DRSC25886	2	inactive
15	TBC1D16	DRSC02841	2	inactive
16	Mps1	DRSC16273	3	inactive
17	Sin3A	DRSC07552	2	inactive
18	Sin3A	DRSC37642	3	inactive
19	CG7049	DRSC08587	2	inactive
20	CG7049	DRSC26356	5	inactive
21	phr6-4	DRSC03589	5	inactive
22	phr6-4	DRSC26873	4	inactive
23	Vap33	DRSC18384	8	inactive
24	CG13033	DRSC09913	4	inactive
25	CG13033	DRSC25379	11	inactive
26	Sgs7	DRSC11281	6	inactive
27	CG31230	DRSC22130	4	inactive
28	CG31230	DRSC26678	9	inactive
29	CG11052	DRSC14288	3	inactive
30	rush	DRSC18568	5	inactive
31	CG11170	DRSC04090	11	inactive
32	CG11170	DRSC29191	1	inactive
33	CG33282	DRSC00422	4	inactive
34	CG30355	DRSC21958	13	inactive
35	CG3386	DRSC08566	2	inactive
36	CG3386	DRSC28282	6	inactive
37	park	DRSC11618	4	inactive
38	RpL24-like	DRSC16111	5	inactive
39	mRpS7	DRSC02814	7	inactive
40	Cyp6a13	DRSC07375	4	inactive
41	CG10184	DRSC14204	8	inactive
42	Tfb1	DRSC07082	3	inactive
43	CG34434	DRSC18134	6	inactive
44	CG34434	DRSC26923	6	inactive
45	CG34434	DRSC28486	5	inactive
46	viaf	DRSC10326	7	inactive
47	CG33630	DRSC14546	3	inactive
48	CG15282	DRSC23090	16	inactive
49	CG15282	DRSC29233	6	inactive
50	Gclc	DRSC18666	14	inactive
51	Art2	DRSC00627	6	inactive
52	CG7213	DRSC10787	3	inactive
53	Cyp12a5	DRSC16621	9	inactive
54	Cyp12a5	DRSC24826	5	inactive
55	CG14606	DRSC12550	4	inactive
56	CG13177	DRSC06303	5	inactive
57	CG42399	DRSC00322	3	inactive
58	CG42399	DRSC00661	5	inactive
59	RhoBTB	DRSC11877	7	inactive
60	CalpA	DRSC07352	10	inactive
61	HGTX	DRSC09319	4	inactive
62	HGTX	DRSC11181	2	inactive
63	Cpr62Bb	DRSC08404	9	inactive
64	Cpr62Bb	DRSC27624	3	inactive
65	Jarid2	DRSC10372	9	inactive
66	Prosalpha4	DRSC20271	19	inactive
67	Prosalpha4	DRSC25287	5	inactive
68	CG6908	DRSC16131	2	inactive
69	CG6908	DRSC25403	5	inactive
70	Nos	DRSC03381	8	inactive
71	RpS11	DRSC07289	12	inactive
72	RpS11	DRSC22700	2	inactive
73	Osi21	DRSC02408	2	inactive
74	eya	DRSC03510	6	inactive
75	RpS5b	DRSC16173	6	inactive
76	Lamtor2 + CG30120	DRSC05726	5	inactive
77	Lamtor2 + CG30120	DRSC06922	8	inactive
78	Flacc	DRSC20040	8	inactive
79	Flacc	DRSC25501	2	inactive
80	CG9727	DRSC12585	9	inactive
81	CG9727	DRSC28868	1	inactive
82	disco	DRSC20323	12	inactive
83	disco	DRSC25113	7	inactive
84	Setd3	DRSC17840	10	inactive
85	Setd3	DRSC18269	10	inactive
86	tn	DRSC05768	5	inactive
87	tn	DRSC06532	5	inactive
88	tn	DRSC27711	7	inactive
89	tor	DRSC07707	7	inactive
90	CG32170	DRSC09452	21	inactive
91	btn	DRSC26486	6	inactive
92	CG15544	DRSC15082	16	inactive
93	CG15544	DRSC25686	12	inactive
94	Col4a1	DRSC03291	7	inactive
95	CG4681	DRSC04481	9	inactive
96	CG4681	DRSC26116	11	inactive
97	Nep6	DRSC19877	6	inactive
98	mRpL30	DRSC18416	11	inactive
99	mRpL30	DRSC26623	3	inactive
100	unc-13	DRSC17192	12	inactive
101	unc-13	DRSC17193	3	inactive
102	unc-13	DRSC17223	2	inactive
103	Theg	DRSC16023	7	inactive
104	Ilp7	DRSC17895	6	inactive
105	Alp13	DRSC15781	4	inactive
106	CG6409	DRSC10630	11	inactive
107	CG6409	DRSC22330	16	inactive
108	CG6409	DRSC27637	7	inactive
109	RpS24	DRSC04414	8	inactive
110	RpS24	DRSC28412	4	inactive

Reprinted from above for reference:
no.	target gene	DRSC id	mitotic cells, replicate 1	outcome
43	CG34434	DRSC18134	6	inactive
44	CG34434	DRSC26923	6	inactive
45	CG34434	DRSC28486	5	inactive
46	viaf	DRSC10326	7	inactive
47	CG33630	DRSC14546	3	inactive
48	CG15282	DRSC23090	16	inactive
49	CG15282	DRSC29233	6	inactive
50	Gclc	DRSC18666	14	inactive
51	Art2	DRSC00627	6	inactive
52	CG7213	DRSC10787	3	inactive
53	Cyp12a5	DRSC16621	9	inactive
54	Cyp12a5	DRSC24826	5	inactive
55	CG14606	DRSC12550	4	inactive
56	CG13177	DRSC06303	5	inactive
57	CG42399	DRSC00322	3	inactive
